Results are given in words; binding and its absence hold for the method and conditions named. Binding seen in cells or lysates may run through a third protein. Binding can be weak; no strength is given.
Target: T1, Bel1/Tas trans-activator of primate foamy virus (PFV) (primate foamy virus (PFV)) (UniProt P14353)
T1 sequence: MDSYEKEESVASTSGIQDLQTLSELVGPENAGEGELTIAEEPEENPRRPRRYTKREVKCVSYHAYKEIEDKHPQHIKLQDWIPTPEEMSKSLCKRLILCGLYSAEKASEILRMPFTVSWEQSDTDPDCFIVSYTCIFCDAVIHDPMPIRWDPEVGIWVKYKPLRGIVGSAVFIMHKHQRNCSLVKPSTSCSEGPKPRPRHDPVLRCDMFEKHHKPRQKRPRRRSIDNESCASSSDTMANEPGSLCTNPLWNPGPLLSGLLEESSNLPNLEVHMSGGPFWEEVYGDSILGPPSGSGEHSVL
Assay: co-IP; 293T cells cotransfected with pbel1s and FLAG-tagged partner; lysis in 150 mM NaCl, 20 mM Tris-HCl pH 7.5, 1% Triton X-100; precipitated with rabbit anti-Bel1 antiserum and protein A-Sepharose, washed three times with lysis buffer; immunoblot with monoclonal anti-FLAG

Substance | binding
FLAG-p300C (C-terminal region of p300, construct no. 4) (human) (domain or fragment) | no binding
FLAG-p300N (amino-terminal region of p300, construct no. 2) (human) (domain or fragment) | binds
FLAG-p300N-C/H1-ΔKIX* (construct no. 5) (human) (domain or fragment) | binds

From publication PMC517496
